Source: publication PMC3461030
Residue numbers refer to the chain shown, from its start. These are yes or no findings as the source states them, for the method shown. Binding seen in cells or lysates may run through a third protein. Some binding calls cover weakened binding; strength is not graded here. Sequences can lack the tags named with a protein.

The chains behind the UniProt entries cited, without tags or fusion partners.
UniProt Q96GD4: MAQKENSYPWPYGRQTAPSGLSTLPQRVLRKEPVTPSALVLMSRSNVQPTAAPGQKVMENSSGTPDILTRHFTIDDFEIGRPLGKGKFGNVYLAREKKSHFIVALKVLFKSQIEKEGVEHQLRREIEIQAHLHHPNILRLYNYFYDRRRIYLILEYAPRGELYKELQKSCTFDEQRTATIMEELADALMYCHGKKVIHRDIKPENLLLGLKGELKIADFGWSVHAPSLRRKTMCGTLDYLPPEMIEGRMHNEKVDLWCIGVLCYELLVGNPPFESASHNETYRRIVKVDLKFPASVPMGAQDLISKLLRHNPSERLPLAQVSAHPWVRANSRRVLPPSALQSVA

Columns and labels:
Assay in all cases: co-IP; monoclonal anti-FLAG antibody on metaphase-enriched HEK cell lysates co-transfected with Aurora B kinase and FLAG-Mst1 plasmids; Western blot for Aurora B kinase
FLAG-Mst1 K59R = target: T1, FLAG-Mst1 K59R (UniProt Q13043)
T1 sequence: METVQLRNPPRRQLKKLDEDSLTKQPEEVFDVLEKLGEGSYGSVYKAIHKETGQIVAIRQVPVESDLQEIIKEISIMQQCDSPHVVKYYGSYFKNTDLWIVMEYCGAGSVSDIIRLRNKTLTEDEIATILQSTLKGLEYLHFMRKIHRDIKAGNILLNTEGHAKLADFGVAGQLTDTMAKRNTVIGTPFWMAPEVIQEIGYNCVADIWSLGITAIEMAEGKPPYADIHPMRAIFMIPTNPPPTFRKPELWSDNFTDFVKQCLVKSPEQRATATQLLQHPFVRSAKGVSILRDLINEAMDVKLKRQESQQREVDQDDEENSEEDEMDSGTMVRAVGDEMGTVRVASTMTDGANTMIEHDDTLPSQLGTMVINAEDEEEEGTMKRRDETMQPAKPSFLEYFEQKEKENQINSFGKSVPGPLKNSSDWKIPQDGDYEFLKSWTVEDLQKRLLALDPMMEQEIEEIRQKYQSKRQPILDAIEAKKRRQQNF

FLAG-Mst1 WT = target: T2, FLAG-Mst1 WT (UniProt Q13043)
T2 sequence: T1 sequence with R59K

[1] = target: T3, FLAG-Mst1 K59R ΔC (amino acid 1–330, lacking NES, and kinase activity) (UniProt Q13043)
T3 sequence: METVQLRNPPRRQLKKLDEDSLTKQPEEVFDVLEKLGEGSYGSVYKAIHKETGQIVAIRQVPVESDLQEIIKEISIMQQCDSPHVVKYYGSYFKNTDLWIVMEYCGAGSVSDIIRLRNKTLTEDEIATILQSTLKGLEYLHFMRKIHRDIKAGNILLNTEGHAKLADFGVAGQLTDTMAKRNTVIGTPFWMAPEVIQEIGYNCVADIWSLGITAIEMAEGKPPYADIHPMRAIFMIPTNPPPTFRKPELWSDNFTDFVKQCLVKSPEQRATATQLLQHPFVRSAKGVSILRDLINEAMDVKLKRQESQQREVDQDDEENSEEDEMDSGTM

- binding (FLAG-Mst1 K59R): binds
- binding (FLAG-Mst1 WT): binds
- binding [1]: binds weakly
Substance: Aurora B kinase-GFP (from UniProt Q96GD4 1-344)
